Screening data, single-dose tests

Data taken from ChEMBL document CHEMBL3988442, “University of Dundee, Small-Polar-MMV Screening Library” (2021).

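Phenotypic screen: M. tuberculosis growth, glucose 7H9 medium, 3 days; the read-out is not stated. Tested at 500 µM. Higher reads as more growth inhibition (inferred: compounds with an IC50 in retests scored well above the rest). About 18,000 compounds were tested under these conditions; 7.9% (about 1,400) showed 50% or more at least once.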

The filed quantity is “Percent Effect” (%).
How 0% and 100% were set is not recorded. Most values in the screen are low, and negative values occur.
Compounds were drawn at random from those tested, without regard to their results.

| # | Compound | Percent Effect |
|---|---|---|
| 1 | `O=C(NCCO)NC1CCOc2ccccc21` (stereo not shown) | 0.9149 |
| 2 | `Cc1nc[nH]c1C(=O)NCC1CCN(CC(C)C)C1` (stereo not shown) | 7.662 |
| 3 | `CCN(CC)CCOC1CCNCC1` | -0.6236 |
| 4 | `Cc1ccc(NCc2ncc[nH]2)c(F)c1` | 57.92 |
| 5 | `CNCCCc1ccc(OC)cc1` | -10.24 |
| 6 | `CNCC1CCN(C(=O)Nc2ccccc2)CC1` | 2.408 |
| 7 | `CCS(=O)(=O)CC(=O)Nc1cccc(C(F)(F)F)c1` | 5.308 |
| 8 | `OCCn1nccc1-c1nc(C2CCOC2)no1` (stereo not shown) | 7.213 |
| 9 | `CNS(=O)(=O)c1ccc(C(=O)Nc2ccc(F)cc2)o1` | 54.61 |
| 10 | `Cc1occc1C(=O)NCC(C)CN1CCOCC1` (stereo not shown) | 9.787 |
| 11 | `CN(C)Cc1ccc(-c2nc(C3CCOC3)no2)o1` (stereo not shown) | 17.79 |
| 12 | `CCCN1CCC(NCCc2ccccn2)CC1` | -6.818 |
| 13 | `CCOC(=O)c1ncsc1Cl` | 15.56 |
| 14 | `COC(=O)CC1CNc2ccccc21` (stereo not shown) | 26.96 |
| 15 | `CC(C)CC(C(=O)Nc1cn[nH]c1)N1CCCCC1=O` (stereo not shown) | 17.03 |
| 16 | `NCCCNS(=O)(=O)c1ccc(Br)c(F)c1` | 57.06 |
| 17 | `CN(CCOc1ccc(Cl)cc1)CCC(N)=O` | 47.41 |
| 18 | `NCCc1ccc2[nH]ccc2c1` | 13.01 |
| 19 | `CNC(=O)c1cc2ccccc2[nH]c1=O` | -17.39 |
| 20 | `Cc1ccc(C2CN(CCNC(C)C)CCO2)o1` (stereo not shown) | 16.19 |
| 21 | `O=C(c1ccc(Cn2cccn2)cc1)N1CCC1` | 42.41 |
| 22 | `COc1ccccc1CNc1ccc(S(N)(=O)=O)cc1` | 35.99 |
| 23 | `Cc1nnsc1CN(C)C(=O)c1cccc2c1OCC2` | 29.06 |
| 24 | `CCC1c2ccsc2CCN1CC(=O)NC` (stereo not shown) | 53.51 |
| 25 | `CSCCCC(=O)Nc1ccc(C)c(C(=O)N(C)C)c1` | -6.143 |
| 26 | `Cc1noc(CN2CCC(C(N)=O)CC2)n1` | -3.443 |
| 27 | `O=C(CCS(=O)(=O)c1ccccc1)Nc1ncccn1` | -9.936 |
| 28 | `NCCNS(=O)(=O)c1cccc(I)c1` | 50.85 |
| 29 | `CCC(CNS(=O)(=O)c1cnn(C)c1)N1CCCC1` (stereo not shown) | -1.277 |
| 30 | `CCN1CC(=O)NC1c1ccc(OC)cc1` (stereo not shown) | 15.23 |
| 31 | `CC(NS(C)(=O)=O)c1cccnc1` (stereo not shown) | 6.611 |
| 32 | `CN1CC[C@H]2CN(C(=O)CCCn3cccn3)C[C@H]21` | 11.12 |
| 33 | `CN(CCCS(=O)(=O)N(C)C)Cc1nc(C2CC2)no1` | 35.34 |
| 34 | `CCc1nnsc1C(=O)Nc1nnc(C)s1` | 17.86 |
| 35 | `CC(C)n1cccc1C(=O)NCCc1cncn1C` | 3.457 |
| 36 | `CN1CCC(NCC(=O)NC(C)(C)C)CC1` | -11.88 |
| 37 | `CC(C)(C)CC(=O)NCC(=O)N1CCOC(C)(C)C1` | -3.321 |
| 38 | `CCn1nc(C)cc1C(=O)N1CCN=C1SC` | 4.135 |
| 39 | `CN(C)C(=O)CNC(=O)NCc1cc(F)ccc1Br` | 8.477 |
| 40 | `CCc1nnc(N2CCN(C(=O)c3ccco3)CC2)o1` | 27.35 |
| 41 | `Cn1cnnc1C1CCCN1` (stereo not shown) | 7.004 |
| 42 | `COc1cnc(C#N)cn1` | 0.05566 |
| 43 | `Cn1cnc2cc(F)ccc21` | 7.015 |
| 44 | `Cc1nn(CCC(=O)NCCN2CCOCC2)cc1Br` | -1.68 |
| 45 | `CC(C)n1nnnc1Cn1ccc2sccc2c1=O` | -0.1464 |
| 46 | `CC(Nc1ccc(F)cc1)C(=O)N1CCCC1` (stereo not shown) | 59.62 |
| 47 | `CSc1nnc(NC(C)(C)C)s1` | 26.52 |
| 48 | `O=C(NC1CC1)C1CCN(CC2CCC2)CC1` | -8.359 |
| 49 | `CC(O)(CN)C1CCCC1` (stereo not shown) | -3.714 |
| 50 | `CN(C)c1ccc(CN(C)[C@@H]2CCCC[C@@H]2O)cn1` | 13.01 |
| 51 | `O=C(NC1CCCC1)c1cnccn1` | 36.97 |
| 52 | `CC(=O)Nc1cccc(C(C)N)c1` (stereo not shown) | 12.93 |
| 53 | `COc1cccc(C(CO)Nc2ncccc2C#N)c1` (stereo not shown) | 24.5 |
| 54 | `CCOc1ncc(C(=O)NCc2ccnn2C)cc1Cl` | 48.07 |
| 55 | `CCOC(=O)NCCC(=O)N(C)Cc1cnn(C)c1` | 5.73 |
| 56 | `Cc1cc(NC(=O)NC2CCN(C3CC3)CC2)n(C)n1` | -4.715 |
| 57 | `COc1ccccc1NC(=O)c1csnn1` | 11.12 |
| 58 | `OCC1CCN(CCc2ccccc2)C1` (stereo not shown) | -3.68 |
| 59 | `CNCC(=O)NCc1cnn(Cc2ccccc2)c1` | 20.59 |
| 60 | `CCS(=O)(=O)CC(=O)NCCc1cccs1` | 25.9 |
| 61 | `O=C1CN(CC(=O)Nc2cc(Cl)cc(Cl)c2)CCN1` | 30.4 |
| 62 | `Cc1ccoc1C(=O)N1CCCC(C)C1` (stereo not shown) | 10.49 |
| 63 | `NCC1CN(Cc2ccccc2)CCO1` (stereo not shown) | 19.98 |
| 64 | `CCCn1ccnc1CN(C)Cc1nc(C)no1` | 8.611 |
| 65 | `COc1ccc(C)cc1NCC(=O)N1CCNC1=O` | 14.7 |
| 66 | `COC(=O)C(C)Nc1ccc(C(N)=O)cc1` (stereo not shown) | 0.3512 |

Once more, the final 8:

- CNCC(=O)NCc1cnn(Cc2ccccc2)c1 | 20.59%
- CCS(=O)(=O)CC(=O)NCCc1cccs1 | 25.9%
- O=C1CN(CC(=O)Nc2cc(Cl)cc(Cl)c2)CCN1 | 30.4%
- Cc1ccoc1C(=O)N1CCCC(C)C1 (stereo not shown) | 10.49%
- NCC1CN(Cc2ccccc2)CCO1 (stereo not shown) | 19.98%
- CCCn1ccnc1CN(C)Cc1nc(C)no1 | 8.611%
- COc1ccc(C)cc1NCC(=O)N1CCNC1=O | 14.7%
- COC(=O)C(C)Nc1ccc(C(N)=O)cc1 (stereo not shown) | 0.3512%